Assay results published in PubChem BioAssay AID504834 (National Center for Advancing Translational Sciences (NCATS), 2011).
The campaign covered roughly 320,000 compounds. About 22,000 (6.9%) were called active. The shares of active, inactive and inconclusive entries below differ from those in the screen. Calls follow the shape of the dose curve; as a rule, active = well fitted inhibition curve with a large enough effect; inconclusive = small, poorly fitted or top-dose-only effect, or another doubt; inactive = no such curve, though single readings can be large or run the other way. Potencies of inconclusive entries are doubtful fits and often do not repeat.

Assay: Primary qHTS for delayed death inhibitors of the malarial parasite plastid, 96 hour incubation
Details: P. falciparum luciferase reporter growth; series mostly up to 28.7 µM
Method in brief: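 P. falciparum expressing integrated firefly luciferase grown in erythrocytes (2% hematocrit, 0.05% parasitemia final) with compounds for 96 hours at 37 C, 5% CO2. Growth inhibition read as loss of luminescence after adding luciferase detection reagent.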
Potency is read from the fitted curve at half-maximal effect.

| Compound | Potency |
| --- | --- |
| COC(=O)c1ccc(-c2ccc(OC)c([C@H]3[C@H]4C=CC[C@@H](C)[C@@H]4C(=O)N3Cc3ccccc3)c2)cc1 | inconclusive: 0.0131 µM [inhibitor, single point] |
| CCCC1c2ccsc2CCN1C(=S)NC (stereo unspecified) | inconclusive: 4.15 µM [inhibitor, partial curve, poor fit] |
| Nc1cccnc1Oc1ccccc1F | inactive |
| N/C(=N\OC(=O)Cc1cccs1)c1cccc([N+](=O)[O-])c1 | inconclusive: 11.7 µM [inhibitor, single point] |
| O=C1CC(C(=O)N2CCc3ccccc32)CN1c1ccccc1 (stereo unspecified) | inactive |
| COc1cc(CCC(=O)Nc2c(C(=O)N3CCN(c4ccccc4)CC3)oc3ccccc23)on1 | inactive |
| COc1ccc(S(=O)(=O)Nc2cc3c4c(c2)CC(=O)N4CCC3)cc1C | inconclusive: 18.5 µM [inhibitor, single point] |
| CC(=O)Nc1ccc(SCCC2CCCCN2C)cc1 (stereo unspecified) | inactive |
| COc1ccccc1NC(=O)c1cc(S(=O)(=O)NCc2ccccc2)ccc1F | active: 5.22 µM |
| Cn1c(=O)n(CC(=O)Nc2ccc(F)cc2)c2ccccc21 | inactive |
| O=C(N/N=C/c1cccs1)c1cc(-c2ccncc2)nc2ccccc12 | inconclusive: 11.7 µM [inhibitor, single point] |
| Cc1cc(C)c2cc(C#N)c(N3CCCN(C(=O)c4cnccn4)CC3)nc2c1 | inconclusive: 9.28 µM [inhibitor, single point] |
| CC(OC(=O)c1cc(O)c2ccccc2c1O)C(=O)Nc1ccc(C(N)=O)cc1 (stereo unspecified) | active: 11.7 µM |
| CCN(C(=O)COC(=O)/C=C/c1ccccc1)C1CCCCC1 | inactive |
| CC(C)N(Cc1ccccc1)CC(O)COc1ccc(S(=O)(=O)N2CCOCC2)cc1Cl (stereo unspecified) | inconclusive: 13.1 µM [inhibitor, single point] |
| CN1C(=O)CSc2ccc(NC(=O)NCc3ccc(F)cc3)cc21 | inconclusive: 14.7 µM [inhibitor, single point] |
| CCCCN(C(=O)CC1CCCC1)c1c(N)n(CCC)c(=O)[nH]c1=O | inactive |
| CCOC(=O)c1c(-c2ccc(C)o2)csc1NC(=S)NC(=O)c1cccs1 | inconclusive: 5.86 µM [inhibitor, partial curve, poor fit] |
| COc1ccc(NC(=O)CSc2nccn2-c2ccccc2)cc1 | inactive |
| CCOC(=O)[C@H]1[C@H]2COc3ccc(OC)cc3[C@@H]2N2C(=O)c3ccc(Cl)cc3NC(=O)[C@@]12C | inconclusive: 18.5 µM [inhibitor, single point] |
| O=C1CSC(c2c(F)cccc2Cl)N1c1cccc(F)c1 (stereo unspecified) | active: 11.7 µM |

A draw from above in order of length of the SMILES, falling:

| Compound | Potency |
| --- | --- |
| CCOC(=O)c1c(-c2ccc(C)o2)csc1NC(=S)NC(=O)c1cccs1 | inconclusive: 5.86 µM [inhibitor, partial curve, poor fit] |
| CN1C(=O)CSc2ccc(NC(=O)NCc3ccc(F)cc3)cc21 | inconclusive: 14.7 µM [inhibitor, single point] |
| Nc1cccnc1Oc1ccccc1F | inactive |
